Measurements from PubChem BioAssay AID2044 (Broad Institute, 2009).
This is one part of the list. Entries with a potency or affinity are not part of this list. Where no call is shown, the source marks the result inconclusive.

Assay: Trypanosoma cruzi growth suppression in host cells – NIH3T3 host cells, beta-gal luminescence, confirmation (AID 2044)
Settings: T. cruzi beta-gal in NIH3T3, GalScreen luminescence, 90 h; at 3 µM (top of the series)

| Compound | activity change, negative = inhibition [%] |
| --- | --- |
| COc1ccc(C2CC(c3ccccc3)=NN2C(=O)c2ccc(Cl)c([N+](=O)[O-])c2)cc1 (stereo not given) | 57.5 |
| COc1ccc(C(CCN)Cc2ccccc2)cc1 (stereo not given) | 32.1 |
| NC(=S)Nc1cccc2[nH]ccc12 | 24.7 |
| CSc1nc(-c2ccc(C)cc2)nc(C(Cl)Cl)n1 | 89.6 |
| CC(NC=C1C(=O)OC(C)(C)OC1=O)C(=O)O (stereo not given) | -30.8 |
